# PubChem BioAssay AID504793, Drosophila RNAi Screening Center, 2011
# Screen: 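Whole-genome screen for parts of the DNA damage checkpoint at G2/M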 (primary screen)
# System: Drosophila S2R+ cells
# Knock-down reagent: long dsRNA against Drosophila genes, about 0.25 µg dsRNA per well
# Duration: 4 days of dsRNA, then 4 hours of drug before read-out
# Challenge: doxorubicin 0.5 µM for 4 hours to cause double-strand breaks, in cells also given a low, harmless dose of dsRNA against nbs to sensitise the assay
# Detection: 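Mitotic index as the number of phospho-histone H3-positive cells in each well following doxorubicin, given as raw counts without normalisation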
# Scale: mitotic cells: higher = more cells in mitosis, weaker G2 arrest
# Hit rule: 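a call needs confirmation in secondary tests, with other dsRNAs and a check of mitotic timing without damage, not just a high primary count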
# Calls: active = confirmed in follow-up tests; inactive = not confirmed
# In all, the deposit lists about 23,000 reagents; shown is an unselected part of those with a known target gene and a result. Over the whole deposit, 62 (0.27%) got an active call. 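Calls come from follow-up tests whose scores are not deposited, so confirmed genes may have low counts here; counts are not normalised per plate.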 Raw values are not corrected between plates. A plus sign joins genes that one reagent is predicted to hit.
Target gene,PubChem SID,"mitotic cells, replicate 1",call
CG9269,SID104196257,9,inactive
VhaAC45RP (VhaAC45-related protein),SID104195215,8,inactive
VhaAC45RP (VhaAC45-related protein),SID104205530,2,inactive
Pten (Phosphatase and tensin homolog),SID104183194,8,inactive
Pten (Phosphatase and tensin homolog),SID104208494,10,inactive
Or33c (Odorant receptor 33c),SID104183180,6,inactive
kek6 (kekkon 6),SID104195091,7,inactive
kek6 (kekkon 6),SID104202876,6,inactive
ringer (ringmaker),SID104190247,8,inactive
Skp2 + CG1103,SID104191952,7,inactive
Skp2 + CG1103,SID104201847,7,inactive
Mesh1 (Metazoan SpoT homolog-1),SID104194225,21,inactive
Jhbp6 (Juvenile hormone binding protein 6),SID104191506,5,inactive
Jhbp6 (Juvenile hormone binding protein 6),SID104205436,7,inactive
CG15522,SID104194851,16,inactive
CG15522,SID104207956,8,inactive
Ahcy (Adenosylhomocysteinase),SID104199121,8,inactive
Ahcy (Adenosylhomocysteinase),SID104205848,4,inactive
Set2 (SET domain containing 2),SID104199557,8,inactive
Cp38 (Chorion protein 38),SID104198245,5,inactive
CG17272,SID104195003,13,inactive
Ip6k (Inositol hexakisphosphate kinase),SID104183846,3,inactive
Ip6k (Inositol hexakisphosphate kinase),SID104203120,10,inactive
CG12128,SID104185896,,inactive
CG12128,SID104208502,4,inactive
CG5335,SID104186723,4,inactive
CG5335,SID104205109,5,inactive
"Lamtor5 (Late endosomal/lysosomal adaptor, MAPK and MTOR activator 5)",SID104198283,17,inactive
CG11836,SID104194188,5,inactive
eRF3 (eukaryotic translation release factor 3),SID104183114,7,inactive
l(2)34Fc (lethal (2) 34Fc),SID104181702,8,inactive
Sap-r (Saposin-related),SID104196641,10,inactive
Sap-r (Saposin-related),SID104201540,10,inactive
Sap-r (Saposin-related),SID104205790,3,inactive
Usp14 (Ubiquitin specific protease 14),SID104182645,6,inactive
Usp14 (Ubiquitin specific protease 14),SID104205292,8,inactive
CG31832,SID104201643,9,inactive
CG31832,SID104204556,3,inactive
CG6707,SID104190489,5,inactive
CG18539,SID104186558,7,inactive
Cbp80 (cap binding protein 80),SID104198242,11,inactive
CG8155,SID104186876,6,inactive
CG8155,SID104201260,17,inactive
CG8155,SID104206930,2,inactive
CG5805,SID104195670,5,inactive
CG5805,SID104203102,5,inactive
CG4477,SID104190217,7,inactive
Cpr97Ea (Cuticular protein 97Ea),SID104195766,11,inactive
Cpr97Ea (Cuticular protein 97Ea),SID104205092,7,inactive

21 of these entries, set out differently:
{"Target gene":"Ip6k (Inositol hexakisphosphate kinase)","PubChem SID":"SID104183846","mitotic cells, replicate 1":3,"call":"inactive"}
{"Target gene":"Ip6k (Inositol hexakisphosphate kinase)","PubChem SID":"SID104203120","mitotic cells, replicate 1":10,"call":"inactive"}
{"Target gene":"CG12128","PubChem SID":"SID104185896","call":"inactive"}
{"Target gene":"CG12128","PubChem SID":"SID104208502","mitotic cells, replicate 1":4,"call":"inactive"}
{"Target gene":"CG5335","PubChem SID":"SID104186723","mitotic cells, replicate 1":4,"call":"inactive"}
{"Target gene":"CG5335","PubChem SID":"SID104205109","mitotic cells, replicate 1":5,"call":"inactive"}
{"Target gene":"Lamtor5 (Late endosomal/lysosomal adaptor, MAPK and MTOR activator 5)","PubChem SID":"SID104198283","mitotic cells, replicate 1":17,"call":"inactive"}
{"Target gene":"CG11836","PubChem SID":"SID104194188","mitotic cells, replicate 1":5,"call":"inactive"}
{"Target gene":"eRF3 (eukaryotic translation release factor 3)","PubChem SID":"SID104183114","mitotic cells, replicate 1":7,"call":"inactive"}
{"Target gene":"l(2)34Fc (lethal (2) 34Fc)","PubChem SID":"SID104181702","mitotic cells, replicate 1":8,"call":"inactive"}
{"Target gene":"Sap-r (Saposin-related)","PubChem SID":"SID104196641","mitotic cells, replicate 1":10,"call":"inactive"}
{"Target gene":"Sap-r (Saposin-related)","PubChem SID":"SID104201540","mitotic cells, replicate 1":10,"call":"inactive"}
{"Target gene":"Sap-r (Saposin-related)","PubChem SID":"SID104205790","mitotic cells, replicate 1":3,"call":"inactive"}
{"Target gene":"Usp14 (Ubiquitin specific protease 14)","PubChem SID":"SID104182645","mitotic cells, replicate 1":6,"call":"inactive"}
{"Target gene":"Usp14 (Ubiquitin specific protease 14)","PubChem SID":"SID104205292","mitotic cells, replicate 1":8,"call":"inactive"}
{"Target gene":"CG31832","PubChem SID":"SID104201643","mitotic cells, replicate 1":9,"call":"inactive"}
{"Target gene":"CG31832","PubChem SID":"SID104204556","mitotic cells, replicate 1":3,"call":"inactive"}
{"Target gene":"CG6707","PubChem SID":"SID104190489","mitotic cells, replicate 1":5,"call":"inactive"}
{"Target gene":"CG18539","PubChem SID":"SID104186558","mitotic cells, replicate 1":7,"call":"inactive"}
{"Target gene":"Cbp80 (cap binding protein 80)","PubChem SID":"SID104198242","mitotic cells, replicate 1":11,"call":"inactive"}
{"Target gene":"CG8155","PubChem SID":"SID104186876","mitotic cells, replicate 1":6,"call":"inactive"}

The results go on.
Target gene,PubChem SID,"mitotic cells, replicate 1",call
Nubp2 (NUBP iron-sulfur cluster assembly factor 2),SID104191550,11,inactive
toe (twin of eyg),SID104188966,17,inactive
mthl3 (methuselah-like 3),SID104186789,6,inactive
mthl3 (methuselah-like 3),SID104203484,5,inactive
zetaTry (zetaTrypsin),SID104187512,4,inactive
"Alg9 (ALG9, alpha-1,2-mannosyltransferase)",SID104194199,10,inactive
Orc6 (Origin recognition complex subunit 6),SID104187289,8,inactive
Rbsn-5 (Rabenosyn-5),SID104182886,5,inactive
Rbsn-5 (Rabenosyn-5),SID104206300,6,inactive
RpS10b (Ribosomal protein S10b),SID104199353,11,inactive
CG31244,SID104201296,4,inactive
CR13656 (pseudo),SID104193497,24,inactive
CR13656 (pseudo),SID104194448,15,inactive
Gr8a (Gustatory receptor 8a),SID104197835,11,inactive
Acp63F (Accessory gland protein 63F),SID104187929,7,inactive
CG42326,SID104186275,5,inactive
CG42326,SID104186276,8,inactive
CG42326,SID104203124,5,inactive
ldbr (lariat debranching enzyme),SID104190725,3,inactive
Srlp (Spliceosome-ribosome linker protein),SID104195682,,inactive
Pkn + Tsen15,SID104201579,6,inactive
Pkn + Tsen15,SID104205920,8,inactive
vas (retired record),SID104201598,10,inactive
cv-2 (crossveinless 2),SID104183653,5,inactive
cv-2 (crossveinless 2),SID104184053,9,inactive
ome (omega),SID104189114,14,inactive
ome (omega),SID104190074,4,inactive
ome (omega),SID104191172,4,inactive
msopa (male-specific opa containing gene),SID104202597,2,inactive
Rh4 + sina,SID104191188,3,inactive
CG31157,SID104201480,12,inactive
CG31157,SID104207703,4,inactive
NimB1 (Nimrod B1),SID104181672,5,inactive
eIF6 (eukaryotic translation initiation factor 6),SID104184466,11,inactive
eIF6 (eukaryotic translation initiation factor 6),SID104207612,2,inactive
CG31321,SID104192820,7,inactive
CG31321,SID104205879,9,inactive
fws (four way stop),SID104182761,8,inactive
fws (four way stop),SID104208222,7,inactive
wek (weckle),SID104183353,3,inactive
pkaap,SID104181717,10,inactive
Alp10 (Alkaline phosphatase 10),SID104189541,3,inactive
Alp10 (Alkaline phosphatase 10),SID104207774,9,inactive
prtp (pretaporter),SID104199596,11,inactive
prtp (pretaporter),SID104201947,7,inactive
mfas (midline fasciclin),SID104196789,5,inactive
mfas (midline fasciclin),SID104207202,5,inactive
CG13587,SID104184015,5,inactive
CG13587,SID104208176,2,inactive
Acp26Ab (Accessory gland protein 26Ab),SID104181648,8,inactive
Acp26Ab (Accessory gland protein 26Ab),SID104206942,7,inactive
CG14628,SID104198418,16,inactive
spt4,SID104187488,6,inactive
hppy (happyhour),SID104186806,7,inactive
hppy (happyhour),SID104186807,3,inactive
hppy (happyhour),SID104186808,2,inactive
hppy (happyhour),SID104206712,3,inactive
eca (eclair),SID104201806,18,inactive
WRNexo (WRN exonuclease),SID104196070,7,inactive
CG13743,SID104202136,10,inactive
CG13743,SID104204120,1,inactive
Lst (Limostatin),SID104186938,7,inactive
Lst (Limostatin),SID104207848,11,inactive
CG34384,SID104194647,3,inactive
CG34384,SID104195236,7,inactive
CG34384,SID104196367,4,inactive
CG8229 + CG33199,SID104184926,8,inactive
CG8229 + CG33199,SID104206224,5,inactive
eIF2D (eukaryotic translation initiation factor 2D),SID104193708,7,inactive
Or98b (Odorant receptor 98b),SID104196567,12,inactive
Or98b (Odorant receptor 98b),SID104201420,,inactive
CG5921,SID104197223,20,inactive
CG5921,SID104198182,8,inactive
CG5921,SID104206037,5,inactive
CG3386,SID104188358,2,inactive
CG3386,SID104206826,6,inactive
LUBEL (Linear Ubiquitin E3 ligase),SID104181933,2,inactive
LUBEL (Linear Ubiquitin E3 ligase),SID104206649,6,inactive
Gr10a (Gustatory receptor 10a),SID104198689,4,inactive
Gr10a (Gustatory receptor 10a),SID104202151,13,inactive
Gr10a (Gustatory receptor 10a),SID104204615,6,inactive
CG7695,SID104196081,5,inactive
rngo (rings lost),SID104199695,13,inactive
rngo (rings lost),SID104205480,5,inactive
Cpr49Ac (Cuticular protein 49Ac),SID104186991,4,inactive
Alms1a (Alstrom syndrome 1a),SID104198350,7,inactive
CG7341,SID104190610,5,inactive
CG32454,SID104191444,2,inactive
CG42724,SID104192359,2,inactive
CG42724,SID104201795,7,inactive
CG42724,SID104203700,2,inactive
CG42724,SID104208625,10,inactive
